Results are given in words; binding and its absence hold for the method and conditions named. Binding seen in cells or lysates may run through a third protein. A yes stands for co-enrichment or nearness to the bait. Other partners may have been found.
Target: Flag-YOD1 (overexpressed in 786-O cells) (human) (UniProt Q5VVQ6)
Experiment: affinity purification with mass spectrometry; Flag-YOD1 overexpressed in 786-O cells; lysate in IP lysis buffer on Flag-labelled magnetic beads overnight at 4 °C, washed with PBST, SDS-PAGE, bands excised, LC-MS/MS

The chains behind the UniProt entries cited, without tags or fusion partners.
UniProt Q5VVQ6: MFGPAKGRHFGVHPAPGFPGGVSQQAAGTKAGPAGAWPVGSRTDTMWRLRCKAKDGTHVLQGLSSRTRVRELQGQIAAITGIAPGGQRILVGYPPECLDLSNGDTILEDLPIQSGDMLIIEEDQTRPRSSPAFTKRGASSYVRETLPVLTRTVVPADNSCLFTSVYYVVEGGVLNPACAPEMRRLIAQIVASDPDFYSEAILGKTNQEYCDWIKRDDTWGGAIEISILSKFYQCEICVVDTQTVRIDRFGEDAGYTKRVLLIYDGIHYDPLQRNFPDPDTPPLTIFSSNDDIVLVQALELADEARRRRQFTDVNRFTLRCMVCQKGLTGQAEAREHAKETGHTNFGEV
UniProt P17028: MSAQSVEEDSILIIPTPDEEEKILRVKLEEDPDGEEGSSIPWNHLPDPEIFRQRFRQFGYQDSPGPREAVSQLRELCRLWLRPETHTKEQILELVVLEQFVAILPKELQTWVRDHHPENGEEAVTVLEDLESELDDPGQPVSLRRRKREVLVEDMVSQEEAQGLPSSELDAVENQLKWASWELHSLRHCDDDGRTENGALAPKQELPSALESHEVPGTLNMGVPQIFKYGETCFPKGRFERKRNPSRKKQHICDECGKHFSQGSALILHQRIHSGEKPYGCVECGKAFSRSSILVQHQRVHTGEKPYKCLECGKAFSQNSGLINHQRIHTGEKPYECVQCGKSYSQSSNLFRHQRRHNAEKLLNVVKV

Q: For “ZNF24, endogenous in 786-O cells (from UniProt P17028 1-368)”, which binding is on record?
A: binds
